{"source": "paper PMC12292949", "binders": {"B1": {"name": "TAF1D (endogenous) (protein, UniProt Q9H5J8 1-278)", "chain": "MDKSGIDSLDHVTSDAVELANRSDNSSDSSLFKTQCIPYSPKGEKRNPIRKFVRTPESVHASDSSSDSSFEPIPLTIKAIFERFKNRKKRYKKKKKRRYQPTGRPRGRPEGRRNPIYSLIDKKKQFRSRGSGFPFLESENEKNAPWRKILTFEQAVARGFFNYIEKLKYEHHLKESLKQMNVGEDLENEDFDSRRYKFLDDDGSISPIEESTAEDEDATHLEDNECDIKLAGDSFIVSSEFPVRLSVYLEEEDITEEAALSKKRATKAKNTGQRGLKM"}, "B2": {"name": "TAF1C (endogenous) (protein, UniProt Q15572 1-869)", "chain": "MDFPSSLRPALFLTGPLGLSDVPDLSFMCSWRDALTLPEAQPQNSENGALHVTKDLLWEPATPGPLPMLPPLIDPWDPGLTARDLLFRGGCRYRKRPRVVLDVTEQISRFLLDHGDVAFAPLGKLMLENFKLEGAGSRTKKKTVVSVKKLLQDLGGHQPWGCPWAYLSNRQRRFSILGGPILGTSVASHLAELLHEELVLRWEQLLLDEACTGGALAWVPGRTPQFGQLVYPAGGAQDRLHFQEVVLTPGDNPQFLGKPGRIQLQGPVRQVVTCTVQGESKALIYTFLPHWLTCYLTPGPFHPSSALLAVRSDYHCAVWKFGKQWQPTLLQAMQVEKGATGISLSPHLPGELAICSRSGAVCLWSPEDGLRQIYRDPETLVFRDSSSWRWADFTAHPRVLTVGDRTGVKMLDTQGPPGCGLLLFRLGAEASCQKGERVLLTQYLGHSSPKCLPPTLHLVCTQFSLYLVDERLPLVPMLKWNHGLPSPLLLARLLPPPRPSCVQPLLLGGQGGQLQLLHLAGEGASVPRLAGPPQSLPSRIDSLPAFPLLEPKIQWRLQERLKAPTIGLAAVVPPLPSAPTPGLVLFQLSAAGDVFYQQLRPQVDSSLRRDAGPPGDTQPDCHAPTASWTSQDTAGCSQWLKALLKVPLAPPVWTAPTFTHRQMLGSTELRREEEEGQRLGVLRKAMARGQLLLQRDLGSLPAAEPPPAPESGLEDKLSERLGEAWAGRGAAWWERQQGRTSEPGRQTRRPKRRTQLSSSFSLSGHVDPSEDTSSPHSPEWPPADALPLPPTTPPSQELTPDACAQGVPSEQRQMLRDYMAKLPPQRDTPGCATTPPHSQASSVRATRSQQHTPVLSSSQPLRKKPRMGF"}, "B3": {"name": "TTF1 (endogenous) (protein, UniProt Q15361 1-905)", "chain": "MEGESSRFEIHTPVSDKKKKKCSIHKERPQKHSHEIFRDSSLVNEQSQITRRKKRKKDFQHLISSPLKKSRICDETANATSTLKKRKKRRYSALEVDEEAGVTVVLVDKENINNTPKHFRKDVDVVCVDMSIEQKLPRKPKTDKFQVLAKSHAHKSEALHSKVREKKNKKHQRKAASWESQRARDTLPQSESHQEESWLSVGPGGEITELPASAHKNKSKKKKKKSSNREYETLAMPEGSQAGREAGTDMQESQPTVGLDDETPQLLGPTHKKKSKKKKKKKSNHQEFEALAMPEGSQVGSEVGADMQESRPAVGLHGETAGIPAPAYKNKSKKKKKKSNHQEFEAVAMPESLESAYPEGSQVGSEVGTVEGSTALKGFKESNSTKKKSKKRKLTSVKRARVSGDDFSVPSKNSESTLFDSVEGDGAMMEEGVKSRPRQKKTQACLASKHVQEAPRLEPANEEHNVETAEDSEIRYLSADSGDADDSDADLGSAVKQLQEFIPNIKDRATSTIKRMYRDDLERFKEFKAQGVAIKFGKFSVKENKQLEKNVEDFLALTGIESADKLLYTDRYPEEKSVITNLKRRYSFRLHIGRNIARPWKLIYYRAKKMFDVNNYKGRYSEGDTEKLKMYHSLLGNDWKTIGEMVARSSLSVALKFSQISSQRNRGAWSKSETRKLIKAVEEVILKKMSPQELKEVDSKLQENPESCLSIVREKLYKGISWVEVEAKVQTRNWMQCKSKWTEILTKRMTNGRRIYYGMNALRAKVSLIERLYEINVEDTNEIDWEDLASAIGDVPPSYVQTKFSRLKAVYVPFWQKKTFPEIIDYLYETTLPLLKEKLEKMMEKKGTKIQTPAAPKQVFPFRDIFYYEDDSEGEDIEKESEGQAPCMAHACNSSTLGGQGRWII"}, "B4": {"name": "TCOF1 (endogenous) (protein, UniProt Q13428 1-1488)", "chain": "MAEARKRRELLPLIYHHLLRAGYVRAAREVKEQSGQKCFLAQPVTLLDIYTHWQQTSELGRKRKAEEDAALQAKKTRVSDPISTSESSEEEEEAEAETAKATPRLASTNSSVLGADLPSSMKEKAKAETEKAGKTGNSMPHPATGKTVANLLSGKSPRKSAEPSANTTLVSETEEEGSVPAFGAAAKPGMVSAGQADSSSEDTSSSSDETDVEGKPSVKPAQVKASSVSTKESPARKAAPAPGKVGDVTPQVKGGALPPAKRAKKPEEESESSEEGSESEEEAPAGTRSQVKASEKILQVRAASAPAKGTPGKGATPAPPGKAGAVASQTKAGKPEEDSESSSEESSDSEEETPAAKALLQAKASGKTSQVGAASAPAKESPRKGAAPAPPGKTGPAVAKAQAGKREEDSQSSSEESDSEEEAPAQAKPSGKAPQVRAASAPAKESPRKGAAPAPPRKTGPAAAQVQVGKQEEDSRSSSEESDSDREALAAMNAAQVKPLGKSPQVKPASTMGMGPLGKGAGPVPPGKVGPATPSAQVGKWEEDSESSSEESSDSSDGEVPTAVAPAQEKSLGNILQAKPTSSPAKGPPQKAGPVAVQVKAEKPMDNSESSEESSDSADSEEAPAAMTAAQAKPALKIPQTKACPKKTNTTASAKVAPVRVGTQAPRKAGTATSPAGSSPAVAGGTQRPAEDSSSSEESDSEEEKTGLAVTVGQAKSVGKGLQVKAASVPVKGSLGQGTAPVLPGKTGPTVTQVKAEKQEDSESSEEESDSEEAAASPAQVKTSVKKTQAKANPAAARAPSAKGTISAPGKVVTAAAQAKQRSPSKVKPPVRNPQNSTVLARGPASVPSVGKAVATAAQAQTGPEEDSGSSEEESDSEEEAETLAQVKPSGKTHQIRAALAPAKESPRKGAAPTPPGKTGPSAAQAGKQDDSGSSSEESDSDGEAPAAVTSAQVIKPPLIFVDPNRSPAGPAATPAQAQAASTPRKARASESTARSSSSESEDEDVIPATQCLTPGIRTNVVTMPTAHPRIAPKASMAGASSSKESSRISDGKKQEGPATQVSKKNPASLPLTQAALKVLAQKASEAQPPVARTQPSSGVDSAVGTLPATSPQSTSVQAKGTNKLRKPKLPEVQQATKAPESSDDSEDSSDSSSGSEEDGEGPQGAKSAHTLGPTPSRTETLVEETAAESSEDDVVAPSQSLLSGYMTPGLTPANSQASKATPKLDSSPSVSSTLAAKDDPDGKQEAKPQQAAGMLSPKTGGKEAASGTTPQKSRKPKKGAGNPQASTLALQSNITQCLLGQPWPLNEAQVQASVVKVLTELLEQERKKVVDTTKESSRKGWESRKRKLSGDQPAARTPRSKKKKKLGAGEGGEASVSPEKTSTTSKGKAKRDKASGDVKEKKGKGSLGSQGAKDEPEEELQKGMGTVEGGDQSNPKSKKEKKKSDKRKKDKEKKEKKKKAKKASTKDSESPSQKKKKKKKKTAEQTV"}, "B5": {"name": "proline-rich protein 11 (PRR11) (endogenous) (protein, UniProt Q96HE9 1-360)", "chain": "MPKFKQRRRKLKAKAERLFKKKEASHFQSKLITPPPPPPSPERVGISSIDISQSRSWLTSSWNFNFPNIRDAIKLWTNRVWSIYSWCQNCITQSLEVLKDTIFPSRICHRELYSVKQQFCILESKLCKLQEALKTISESSSCPSCGQTCHMSGKLTNVPACVLITPGDSKAVLPPTLPQPASHFPPPPPPPPLPPPPPPLAPVLLRKPSLAKALQAGPLKKDGPMQITVKDLLTVKLKKTQSLDEKRKLIPSPKARNPLVTVSDLQHVTLKPNSKVLSTRVTNVLITPGKSQMDLRKLLRKVDVERSPGGTPLTNKENMETGTGLTPVMTQALRRKFQLAHPRSPTPTLPLSTSSFDEQN"}}, "note": "These are yes or no findings as the source states them, for the method shown. Binding seen in cells or lysates may run through a third protein. A yes stands for co-enrichment or nearness to the bait. Other partners may have been found.", "data": [{"target": "T1, H2A.B N-terminal peptide phosphorylated at S9 (human)", "T1 sequence (peptide, phosphoserine at S9; C-terminally biotinylated)": "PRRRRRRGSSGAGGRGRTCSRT", "test": "affinity purification with mass spectrometry; SILAC: biotinylated unmodified or S9ph H2A.B N-terminal peptide on streptavidin beads, L428 nuclear extract, 2 h at 4 C, binding buffer with NP-40 reduced to 0.1%; washes with 350 mM NaCl; LC-MS/MS; only the target purified", "values": [{"binder": "B1", "binding": "binds"}, {"binder": "B2", "binding": "binds"}, {"binder": "B3", "binding": "binds"}, {"binder": "B4", "binding": "binds"}, {"binder": "B5", "binding": "binds"}]}]}
